Laboratory results from paper doi:10.1101/2024.06.06.597842.
These are yes or no findings as the source states them, for the method shown. Binding seen in cells or lysates may run through a third protein. Some entries that bind do so weakly or less than the wild type. For some of these results: Sequences can lack the tags named with a protein.

By UniProt entry, the sequences of proteins in these tests, tags left out.
UniProt P23678: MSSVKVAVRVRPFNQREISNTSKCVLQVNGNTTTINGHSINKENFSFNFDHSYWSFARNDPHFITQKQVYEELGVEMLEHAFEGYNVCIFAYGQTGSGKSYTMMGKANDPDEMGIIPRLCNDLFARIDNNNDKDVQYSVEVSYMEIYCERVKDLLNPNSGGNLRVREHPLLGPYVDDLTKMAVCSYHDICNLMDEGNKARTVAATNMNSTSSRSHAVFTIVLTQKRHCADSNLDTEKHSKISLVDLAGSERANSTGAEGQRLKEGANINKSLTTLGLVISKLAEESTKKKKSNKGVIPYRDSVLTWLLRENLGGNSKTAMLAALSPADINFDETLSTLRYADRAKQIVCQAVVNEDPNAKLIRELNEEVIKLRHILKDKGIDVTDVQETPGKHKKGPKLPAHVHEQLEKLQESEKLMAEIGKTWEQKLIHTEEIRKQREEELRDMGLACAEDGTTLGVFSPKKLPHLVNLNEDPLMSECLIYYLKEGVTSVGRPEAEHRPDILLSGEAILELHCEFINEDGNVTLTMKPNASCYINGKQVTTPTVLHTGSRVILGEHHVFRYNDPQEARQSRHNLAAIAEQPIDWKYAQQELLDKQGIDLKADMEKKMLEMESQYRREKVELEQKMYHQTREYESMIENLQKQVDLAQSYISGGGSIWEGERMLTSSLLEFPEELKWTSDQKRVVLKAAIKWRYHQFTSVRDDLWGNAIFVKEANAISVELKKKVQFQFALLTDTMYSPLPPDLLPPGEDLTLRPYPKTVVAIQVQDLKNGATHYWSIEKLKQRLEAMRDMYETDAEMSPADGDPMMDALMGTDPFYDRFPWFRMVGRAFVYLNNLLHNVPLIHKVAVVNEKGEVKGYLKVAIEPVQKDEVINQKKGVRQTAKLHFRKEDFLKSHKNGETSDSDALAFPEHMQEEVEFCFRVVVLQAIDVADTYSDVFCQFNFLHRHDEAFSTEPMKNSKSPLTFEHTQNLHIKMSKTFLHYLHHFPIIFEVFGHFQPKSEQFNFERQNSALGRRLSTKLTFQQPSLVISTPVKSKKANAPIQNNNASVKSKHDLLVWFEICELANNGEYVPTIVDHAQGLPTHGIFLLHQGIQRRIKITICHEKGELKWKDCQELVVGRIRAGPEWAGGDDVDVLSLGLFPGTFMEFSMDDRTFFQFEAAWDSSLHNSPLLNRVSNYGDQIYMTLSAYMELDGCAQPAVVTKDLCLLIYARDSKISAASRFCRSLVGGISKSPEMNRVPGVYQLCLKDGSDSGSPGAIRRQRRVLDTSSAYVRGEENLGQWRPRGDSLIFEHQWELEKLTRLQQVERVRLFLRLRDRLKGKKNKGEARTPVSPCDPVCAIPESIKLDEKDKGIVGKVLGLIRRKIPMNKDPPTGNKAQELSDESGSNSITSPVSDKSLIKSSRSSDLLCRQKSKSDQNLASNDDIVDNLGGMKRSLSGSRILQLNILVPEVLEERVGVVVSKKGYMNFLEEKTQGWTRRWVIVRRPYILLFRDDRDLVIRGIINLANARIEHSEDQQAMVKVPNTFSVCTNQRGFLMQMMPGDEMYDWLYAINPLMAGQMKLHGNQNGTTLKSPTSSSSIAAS

Legend:
[1] = target: T1, MEC-17::VC155 (C. elegans) (UniProt O45100); experiment: split reporter
T1 sequence: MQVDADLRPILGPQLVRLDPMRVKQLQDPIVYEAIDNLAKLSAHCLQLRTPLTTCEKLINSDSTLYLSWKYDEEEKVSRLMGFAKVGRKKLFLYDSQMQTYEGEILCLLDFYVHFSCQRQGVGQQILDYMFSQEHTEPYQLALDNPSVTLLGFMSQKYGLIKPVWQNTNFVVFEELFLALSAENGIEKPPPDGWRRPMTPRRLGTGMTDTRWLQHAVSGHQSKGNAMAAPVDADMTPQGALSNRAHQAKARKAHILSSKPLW

[2] = target: T2, UNC-17::VC155 (C. elegans) (UniProt P34711); experiment: split reporter
T2 sequence: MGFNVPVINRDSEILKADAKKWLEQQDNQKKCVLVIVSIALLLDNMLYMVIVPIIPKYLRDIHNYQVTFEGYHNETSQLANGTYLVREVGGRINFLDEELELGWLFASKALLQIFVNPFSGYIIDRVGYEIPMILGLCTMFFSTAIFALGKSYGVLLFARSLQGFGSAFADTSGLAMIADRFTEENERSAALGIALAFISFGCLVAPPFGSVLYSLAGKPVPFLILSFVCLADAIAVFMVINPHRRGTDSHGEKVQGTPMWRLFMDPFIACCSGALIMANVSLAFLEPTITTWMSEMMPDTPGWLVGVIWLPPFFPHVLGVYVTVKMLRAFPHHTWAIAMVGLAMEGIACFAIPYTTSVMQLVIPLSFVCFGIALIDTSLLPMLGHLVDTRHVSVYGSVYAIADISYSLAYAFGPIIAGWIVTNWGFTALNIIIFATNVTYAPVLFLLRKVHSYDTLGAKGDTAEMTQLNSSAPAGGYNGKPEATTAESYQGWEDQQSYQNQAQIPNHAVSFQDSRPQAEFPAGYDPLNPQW

[3] = target: T3, UNC-17::GFP (C. elegans) (UniProt P34711); experiment: co-IP
T3 sequence: T2 sequence

[4] = target: T4, MEC-17::GFP (C. elegans) (UniProt O45100); experiment: co-IP
T4 sequence: T1 sequence

Row | Substance | binding [1] | binding [2] | binding [3] | binding [4]
1 | UNC-104::VN173 (from UniProt P23678 1-1584) | binds | binds |  | 
2 | UNC-104::mRFP (from UniProt P23678 1-1584) |  |  | binds | binds
